# Cell number after 72 h of treatment

Source: doi:10.1371/journal.pone.0140310, primary screening data, rounded.

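Human melanoma cell lines in 1,536-well plates were treated with two drugs together for 72 h, then fixed, stained and imaged. Values are the number of DAPI-stained nuclei as a percentage of the DMSO control: 100 is no effect, lower means fewer cells. Concentrations were fixed for each drug; these are the lower of two levels, a fifth of the higher. The file gives one value for each pair and line, without errors, so small differences may be noise.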
An unselected part of the screen is shown.

Compounds and concentrations:
gemcitabine: Nc1ccn([C@@H]2O[C@H](CO)[C@@H](O)C2(F)F)c(=O)n1 at 0.4 nM
stibogluconate: O=C(O)[C@@H]1[O][Sb](=[O])([O][Sb]2(=[O])[O][C@H]([C@H](O)CO)[C@H](O)[C@H](C(=O)O)[O]2)[O][C@H]([C@H](O)CO)[C@@H]1O (stereo partly specified) at 2000 nM
crizotinib: C[C@@H](Oc1cc(-c2cnn(C3CCNCC3)c2)cnc1N)c1c(Cl)ccc(F)c1Cl at 200 nM
decitabine: Nc1ncn([C@H]2C[C@H](O)[C@@H](CO)O2)c(=O)n1 at 100 nM
vismodegib: CS(=O)(=O)c1ccc(C(=O)Nc2ccc(Cl)c(-c3ccccn3)c2)c(Cl)c1 at 1000 nM
temozolomide: Cn1nnc2c(C(N)=O)ncn2c1=O at 2000 nM
IMD-0354: O=C(Nc1cc(C(F)(F)F)cc(C(F)(F)F)c1)c1cc(Cl)ccc1O at 16 nM
lapatinib: CS(=O)(=O)CCNCc1ccc(-c2ccc3ncnc(Nc4ccc(OCc5cccc(F)c5)c(Cl)c4)c3c2)o1 at 800 nM
tozasertib: Cc1cc(Nc2cc(N3CCN(C)CC3)nc(Sc3ccc(NC(=O)C4CC4)cc3)n2)n[nH]1 at 6 nM
OSI-906: C[C@]1(O)C[C@@H](c2nc(-c3ccc4ccc(-c5ccccc5)nc4c3)c3c(N)nccn32)C1 at 400 nM

Drugs	COLO 792
crizotinib + decitabine	76.8
IMD-0354 + decitabine	86.5
lapatinib + IMD-0354	82.4
tozasertib + crizotinib	88.3
vismodegib + tozasertib	91.2
stibogluconate + IMD-0354	96.3
crizotinib + OSI-906	72.2
stibogluconate + tozasertib	94.9
decitabine + lapatinib	72.4
lapatinib + temozolomide	76.4
vismodegib + gemcitabine	97.6
gemcitabine + temozolomide	96.4
stibogluconate + temozolomide	110
OSI-906 + stibogluconate	122
IMD-0354 + temozolomide	110
IMD-0354 + tozasertib	105
vismodegib + stibogluconate	103
temozolomide + vismodegib	98.7
decitabine + tozasertib	81.3
OSI-906 + temozolomide	105
OSI-906 + gemcitabine	103
gemcitabine + crizotinib	89.4
gemcitabine + tozasertib	90.7
lapatinib + gemcitabine	66.0
temozolomide + crizotinib	100
tozasertib + lapatinib	69.0
decitabine + stibogluconate	96.3
lapatinib + crizotinib	76.2
temozolomide + tozasertib	85.9
IMD-0354 + crizotinib	121
lapatinib + vismodegib	77.7
stibogluconate + gemcitabine	96.8
OSI-906 + lapatinib	76.9
tozasertib + OSI-906	86.7
decitabine + OSI-906	88.5
stibogluconate + crizotinib	123
temozolomide + decitabine	90.8
IMD-0354 + OSI-906	90.5

Repeated from the top, 5 entries:

| Drugs | COLO 792 |
|---|---|
| crizotinib + decitabine | 76.8 |
| IMD-0354 + decitabine | 86.5 |
| lapatinib + IMD-0354 | 82.4 |
| tozasertib + crizotinib | 88.3 |
| vismodegib + tozasertib | 91.2 |